Data published in PMC8795447.
No constants are given. Whether binding was seen depends on the method and setting. In cells and extracts the contact can be indirect. Some entries that bind do so weakly or less than the wild type.

Amino acid sequences for entries named in this document (tags omitted). A change or cut given only in a name is not applied to a line headed by its entry. Chains listed by the source or under a name are the forms on record and can include a tag or linker. Residues count along the entry.
UniProt P08912: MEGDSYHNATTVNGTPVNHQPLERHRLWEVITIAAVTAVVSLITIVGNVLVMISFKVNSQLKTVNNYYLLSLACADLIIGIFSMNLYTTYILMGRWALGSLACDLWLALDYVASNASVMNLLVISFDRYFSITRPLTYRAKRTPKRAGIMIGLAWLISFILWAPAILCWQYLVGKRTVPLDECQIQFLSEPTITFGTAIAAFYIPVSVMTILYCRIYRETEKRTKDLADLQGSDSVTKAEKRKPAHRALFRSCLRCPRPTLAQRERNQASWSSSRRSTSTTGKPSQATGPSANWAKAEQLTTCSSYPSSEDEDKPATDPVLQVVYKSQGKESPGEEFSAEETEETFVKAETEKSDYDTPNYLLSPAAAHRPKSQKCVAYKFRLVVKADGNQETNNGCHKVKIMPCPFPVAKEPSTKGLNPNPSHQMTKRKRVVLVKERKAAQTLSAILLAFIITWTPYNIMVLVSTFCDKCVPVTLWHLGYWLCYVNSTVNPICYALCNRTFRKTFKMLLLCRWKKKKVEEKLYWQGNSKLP
UniProt P21730: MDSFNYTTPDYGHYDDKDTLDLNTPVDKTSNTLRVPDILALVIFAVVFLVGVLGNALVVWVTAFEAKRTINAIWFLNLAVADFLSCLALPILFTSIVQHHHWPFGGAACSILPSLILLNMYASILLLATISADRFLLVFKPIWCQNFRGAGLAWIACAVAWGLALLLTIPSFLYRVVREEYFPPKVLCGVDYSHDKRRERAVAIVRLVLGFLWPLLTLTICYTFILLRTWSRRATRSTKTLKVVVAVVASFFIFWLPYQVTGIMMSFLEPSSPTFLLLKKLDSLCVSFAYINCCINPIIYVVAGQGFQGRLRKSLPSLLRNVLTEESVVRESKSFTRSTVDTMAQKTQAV
AT1R^S348A (P30556, form named): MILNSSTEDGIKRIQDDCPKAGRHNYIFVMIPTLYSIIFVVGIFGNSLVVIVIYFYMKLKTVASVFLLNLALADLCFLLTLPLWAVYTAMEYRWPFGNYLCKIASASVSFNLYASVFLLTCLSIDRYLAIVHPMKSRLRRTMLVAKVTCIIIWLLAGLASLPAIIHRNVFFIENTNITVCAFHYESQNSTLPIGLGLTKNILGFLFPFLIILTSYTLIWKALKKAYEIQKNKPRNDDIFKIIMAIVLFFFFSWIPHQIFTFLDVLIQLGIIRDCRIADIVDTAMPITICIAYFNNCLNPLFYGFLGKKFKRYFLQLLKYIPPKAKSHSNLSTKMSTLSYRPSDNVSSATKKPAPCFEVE
AT1R^S347A/S348A (P30556, form named): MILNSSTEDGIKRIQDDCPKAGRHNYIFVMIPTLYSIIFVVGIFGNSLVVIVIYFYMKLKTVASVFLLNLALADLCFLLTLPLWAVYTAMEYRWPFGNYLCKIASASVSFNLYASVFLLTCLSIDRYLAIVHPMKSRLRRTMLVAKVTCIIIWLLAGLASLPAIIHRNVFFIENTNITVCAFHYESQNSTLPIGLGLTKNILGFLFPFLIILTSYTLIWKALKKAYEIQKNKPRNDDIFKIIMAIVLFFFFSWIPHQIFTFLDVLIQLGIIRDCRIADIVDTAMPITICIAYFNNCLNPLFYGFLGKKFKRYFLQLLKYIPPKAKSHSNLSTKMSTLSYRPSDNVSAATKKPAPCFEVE
AT1R^S347A (P30556, form named): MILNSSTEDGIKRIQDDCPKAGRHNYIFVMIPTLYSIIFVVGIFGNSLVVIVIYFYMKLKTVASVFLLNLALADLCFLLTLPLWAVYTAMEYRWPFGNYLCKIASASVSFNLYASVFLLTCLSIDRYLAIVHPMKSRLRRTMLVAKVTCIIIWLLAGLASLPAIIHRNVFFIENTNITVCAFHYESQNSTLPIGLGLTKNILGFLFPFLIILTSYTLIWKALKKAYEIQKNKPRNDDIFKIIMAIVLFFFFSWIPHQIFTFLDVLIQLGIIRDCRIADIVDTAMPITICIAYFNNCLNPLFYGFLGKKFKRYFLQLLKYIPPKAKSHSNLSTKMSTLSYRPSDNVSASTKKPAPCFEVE
UniProt P08172: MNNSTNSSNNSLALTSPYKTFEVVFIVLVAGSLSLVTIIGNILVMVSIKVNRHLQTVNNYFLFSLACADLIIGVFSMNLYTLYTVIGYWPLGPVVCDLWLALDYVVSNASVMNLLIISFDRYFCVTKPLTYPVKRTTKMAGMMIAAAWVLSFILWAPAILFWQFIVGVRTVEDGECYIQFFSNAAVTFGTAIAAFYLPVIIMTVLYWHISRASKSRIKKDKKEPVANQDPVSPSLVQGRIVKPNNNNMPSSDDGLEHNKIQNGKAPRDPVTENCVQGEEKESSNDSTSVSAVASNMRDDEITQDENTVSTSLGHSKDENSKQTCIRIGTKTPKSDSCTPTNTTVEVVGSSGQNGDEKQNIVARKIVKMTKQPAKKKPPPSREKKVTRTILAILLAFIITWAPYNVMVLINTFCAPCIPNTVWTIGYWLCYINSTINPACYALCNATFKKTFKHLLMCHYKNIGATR
UniProt P08173: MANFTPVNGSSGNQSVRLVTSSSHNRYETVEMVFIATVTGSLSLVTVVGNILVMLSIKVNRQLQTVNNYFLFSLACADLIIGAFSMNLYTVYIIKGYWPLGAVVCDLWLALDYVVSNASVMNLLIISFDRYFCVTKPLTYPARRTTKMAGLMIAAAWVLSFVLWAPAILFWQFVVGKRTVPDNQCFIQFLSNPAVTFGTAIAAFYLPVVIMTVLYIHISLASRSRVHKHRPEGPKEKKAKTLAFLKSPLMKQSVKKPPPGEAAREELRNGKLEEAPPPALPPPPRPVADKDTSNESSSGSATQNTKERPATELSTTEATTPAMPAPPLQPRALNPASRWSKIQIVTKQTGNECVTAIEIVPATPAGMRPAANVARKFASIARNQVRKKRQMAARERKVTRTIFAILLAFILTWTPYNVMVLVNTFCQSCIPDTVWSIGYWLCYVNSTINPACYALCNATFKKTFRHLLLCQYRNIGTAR
UniProt P42866: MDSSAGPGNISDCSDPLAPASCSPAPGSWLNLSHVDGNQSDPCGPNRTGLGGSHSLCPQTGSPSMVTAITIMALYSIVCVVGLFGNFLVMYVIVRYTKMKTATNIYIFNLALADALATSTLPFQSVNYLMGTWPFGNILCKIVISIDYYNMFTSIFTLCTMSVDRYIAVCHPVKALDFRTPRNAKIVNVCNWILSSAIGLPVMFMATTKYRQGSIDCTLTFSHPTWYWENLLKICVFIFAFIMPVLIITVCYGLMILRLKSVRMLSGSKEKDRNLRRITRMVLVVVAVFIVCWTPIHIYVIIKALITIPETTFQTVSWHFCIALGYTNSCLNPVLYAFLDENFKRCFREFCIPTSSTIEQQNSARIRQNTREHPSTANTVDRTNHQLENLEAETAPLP
UniProt P20309: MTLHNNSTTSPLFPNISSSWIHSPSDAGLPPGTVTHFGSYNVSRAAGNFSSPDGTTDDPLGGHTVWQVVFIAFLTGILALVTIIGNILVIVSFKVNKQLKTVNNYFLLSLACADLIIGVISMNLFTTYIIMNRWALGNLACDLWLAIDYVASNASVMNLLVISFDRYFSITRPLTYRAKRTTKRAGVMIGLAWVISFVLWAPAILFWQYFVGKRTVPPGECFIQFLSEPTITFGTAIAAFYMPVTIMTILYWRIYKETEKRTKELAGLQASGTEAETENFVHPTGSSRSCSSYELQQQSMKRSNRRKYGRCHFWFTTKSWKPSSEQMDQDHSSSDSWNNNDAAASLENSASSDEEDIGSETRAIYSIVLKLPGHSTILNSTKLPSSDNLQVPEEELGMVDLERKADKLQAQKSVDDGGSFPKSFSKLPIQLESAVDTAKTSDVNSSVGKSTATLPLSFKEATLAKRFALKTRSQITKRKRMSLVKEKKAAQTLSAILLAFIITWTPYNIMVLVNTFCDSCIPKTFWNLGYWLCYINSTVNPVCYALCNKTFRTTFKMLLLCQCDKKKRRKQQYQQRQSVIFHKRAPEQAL
UniProt Q03431, residues 27-593: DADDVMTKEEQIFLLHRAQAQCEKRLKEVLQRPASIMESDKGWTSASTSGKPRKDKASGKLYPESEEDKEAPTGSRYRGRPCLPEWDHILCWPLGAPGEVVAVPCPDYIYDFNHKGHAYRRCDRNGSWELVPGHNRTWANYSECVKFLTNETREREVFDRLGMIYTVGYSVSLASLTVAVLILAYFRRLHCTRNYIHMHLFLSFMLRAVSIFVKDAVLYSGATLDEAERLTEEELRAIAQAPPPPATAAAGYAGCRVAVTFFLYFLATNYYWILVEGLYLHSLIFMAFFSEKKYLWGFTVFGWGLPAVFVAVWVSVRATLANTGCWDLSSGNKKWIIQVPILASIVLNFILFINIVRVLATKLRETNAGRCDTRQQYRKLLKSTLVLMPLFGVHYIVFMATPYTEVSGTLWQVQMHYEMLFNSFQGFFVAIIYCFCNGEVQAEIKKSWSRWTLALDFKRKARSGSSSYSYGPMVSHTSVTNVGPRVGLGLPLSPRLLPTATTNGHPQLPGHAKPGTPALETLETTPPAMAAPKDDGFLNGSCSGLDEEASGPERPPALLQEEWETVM
UniProt P17870: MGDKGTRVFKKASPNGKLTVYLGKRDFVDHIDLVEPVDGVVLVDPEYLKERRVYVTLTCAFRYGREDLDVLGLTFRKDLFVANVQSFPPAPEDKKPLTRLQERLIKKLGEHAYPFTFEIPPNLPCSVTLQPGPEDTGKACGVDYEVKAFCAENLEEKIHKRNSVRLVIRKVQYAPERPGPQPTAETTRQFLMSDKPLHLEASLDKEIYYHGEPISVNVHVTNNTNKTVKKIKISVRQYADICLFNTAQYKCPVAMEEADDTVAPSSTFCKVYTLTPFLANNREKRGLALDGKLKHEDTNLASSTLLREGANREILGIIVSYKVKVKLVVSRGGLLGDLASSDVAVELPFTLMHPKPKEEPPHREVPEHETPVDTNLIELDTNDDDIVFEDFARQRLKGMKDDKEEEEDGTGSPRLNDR

Key:
[1] = target: muscarinic acetylcholine receptor M5-NanoLuc (human) (UniProt P08912); assay: condition: only in ΔQ-GRK cells (knockout of GRK2, 3, 5 and 6); FRET or BRET; intermolecular NanoBRET (GPCR-NanoLuc, Halo-Tag-β-arrestin) in ΔQ-GRK cells + empty vector (knockout of GRK2, 3, 5 and 6), agonist-stimulated
[2] = target: complement 5a receptor 1-NanoLuc (human) (UniProt P21730); assay: FRET or BRET; intermolecular NanoBRET in living HEK293 cells: GPCR-NanoLuc (donor) and Halo-Tag-β-arrestin labelled with Halo 618 ligand (acceptor); Control, ΔGRK clones or ΔQ-GRK with EV or one overexpressed GRK (2, 3, 5 or 6); baseline 3 min, then agonist for 5 min; some experiments with Gö6983, cmpd101, pindolol or Losartan
[3] = target: angiotensin II type 1 receptor-NanoLuc (human) (UniProt P30556); assay: as above
[4] = target: muscarinic acetylcholine receptor M2-NanoLuc (human) (UniProt P08172); assay: as above
[5] = target: muscarinic acetylcholine receptor M4-NanoLuc (human) (UniProt P08173); assay: as above
[6] = target: µ-opioid receptor-NanoLuc (murine) (UniProt P42866); assay: as above
[7] = target: muscarinic acetylcholine receptor M5-NanoLuc (human) (UniProt P08912); assay: as above
[8] = target: angiotensin II type 1 receptor-NanoLuc (human) (UniProt P30556); assay: condition: only in ΔQ-GRK cells with the PKC inhibitor Gö6983 (500 nM); FRET or BRET; intermolecular NanoBRET (AT1R-NanoLuc, Halo-Tag-β-arrestin) in ΔQ-GRK cells + empty vector, pre-incubated with 500 nM PKC inhibitor Gö6983 at 37 °C for 1 h, then AngII
AT1R^S348A (human) = AT1R^S348A (human) (UniProt P30556); assay: FRET or BRET; intermolecular NanoBRET in living HEK293 cells: GPCR-NanoLuc (donor) and Halo-Tag-β-arrestin labelled with Halo 618 ligand (acceptor); Control, ΔGRK clones or ΔQ-GRK with EV or one overexpressed GRK (2, 3, 5 or 6); baseline 3 min, then agonist for 5 min; some experiments with Gö6983, cmpd101, pindolol or Losartan
AT1R^S347A/S348A (human) = AT1R^S347A/S348A (human) (UniProt P30556); assay: as above
AT1R^S347A (human) = AT1R^S347A (human) (UniProt P30556); assay: as above
[9] = target: muscarinic acetylcholine receptor M3-NanoLuc (human) (UniProt P20309); assay: as above
[10] = target: parathyroid hormone 1 receptor-Halo-Tag (human) (UniProt Q03431); assay: FRET or BRET; intermolecular NanoBRET in living HEK293 cells, BRET pair swapped: GPCR-Halo-Tag (PTH1R, V2R) and β-arrestin-NanoLuc; Control, ΔGRK clones or ΔQ-GRK with EV or one overexpressed GRK; baseline and after agonist (PTH(1-34) or AVP); some experiments with Tolvaptan

Row | binding [1] | binding [2] | binding [3] | binding [4] | binding [5] | binding [6] | binding [7] | binding [8] | binding (AT1R^S348A (human)) | binding (AT1R^S347A/S348A (human)) | binding (AT1R^S347A (human)) | binding [9] | binding [10] | Substance
1 | no binding | binds | binds | binds | binds | binds | binds | no binding |  |  |  |  |  | Halo-Tag-β-arrestin1 (from UniProt P17870 1-418)
2 |  | binds | binds | binds | binds | binds | binds |  | binds | binds | binds | binds |  | Halo-Tag-β-arrestin2 (from UniProt P32120 1-420)
3 |  |  |  |  |  |  |  |  |  |  |  |  | binds | β-arrestin1-NanoLuc (from UniProt P17870 1-418)
4 |  |  |  |  |  |  |  |  |  |  |  |  | binds | β-arrestin2-NanoLuc (from UniProt P32120 1-420)
